Experimental data from publication PMC10541204.
These are yes or no findings as the source states them, for the method shown. In cells and extracts the contact can be indirect. Some binding calls cover weakened binding; strength is not graded here.

By UniProt entry, the sequences of proteins in these tests, tags left out.
UniProt Q15025: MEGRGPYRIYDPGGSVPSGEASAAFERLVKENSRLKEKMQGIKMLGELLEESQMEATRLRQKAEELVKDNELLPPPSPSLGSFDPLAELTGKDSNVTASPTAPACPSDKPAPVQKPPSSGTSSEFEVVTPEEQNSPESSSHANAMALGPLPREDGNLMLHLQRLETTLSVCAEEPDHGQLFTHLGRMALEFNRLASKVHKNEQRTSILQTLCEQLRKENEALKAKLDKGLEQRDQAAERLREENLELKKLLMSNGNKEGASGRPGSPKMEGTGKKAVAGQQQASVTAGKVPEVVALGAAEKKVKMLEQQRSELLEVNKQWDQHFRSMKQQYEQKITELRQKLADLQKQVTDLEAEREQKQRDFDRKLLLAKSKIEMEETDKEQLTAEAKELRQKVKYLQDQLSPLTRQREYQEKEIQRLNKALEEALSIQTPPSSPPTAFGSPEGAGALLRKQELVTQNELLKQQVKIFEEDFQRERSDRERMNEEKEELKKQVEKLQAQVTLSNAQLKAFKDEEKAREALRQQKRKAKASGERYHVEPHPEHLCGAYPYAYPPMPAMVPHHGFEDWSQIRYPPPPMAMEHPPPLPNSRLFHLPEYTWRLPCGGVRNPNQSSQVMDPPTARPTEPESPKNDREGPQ
UniProt Q9Y6K9: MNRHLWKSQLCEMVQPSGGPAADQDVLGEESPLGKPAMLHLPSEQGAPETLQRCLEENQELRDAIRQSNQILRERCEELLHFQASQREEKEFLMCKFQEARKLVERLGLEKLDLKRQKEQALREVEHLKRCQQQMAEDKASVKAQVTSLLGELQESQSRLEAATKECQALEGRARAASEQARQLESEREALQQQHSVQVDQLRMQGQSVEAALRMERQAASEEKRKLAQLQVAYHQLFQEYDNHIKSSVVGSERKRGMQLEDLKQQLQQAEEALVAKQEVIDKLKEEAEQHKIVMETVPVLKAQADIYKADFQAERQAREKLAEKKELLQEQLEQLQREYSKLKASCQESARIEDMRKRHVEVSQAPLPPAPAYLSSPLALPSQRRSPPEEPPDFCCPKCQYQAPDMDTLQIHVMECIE

Target: TNIP1 (human (endogenous in HRMECs)) (UniProt Q15025)
Assay: co-IP; HRMEC lysate in RIPA buffer with protease inhibitor; supernatants immunoprecipitated with indicated antibodies overnight at 4°C, protein G-agarose beads 2 hours, immunoblotting

- binding: binds
Substance: NF-κB essential modulator (from UniProt Q9Y6K9 1-419)
